Measured values from patent US20240148684A1, “COMPOUNDS AND METHODS FOR TREATING CONGENITAL ERYTHROPOIETIC PORPHYRIA” (RUTGERS, THE STATE UNIVERSITY OF NEW JERSEY, priority 2021, published 2024).
Counter-ions that a name gives are not always drawn.

Experiment: In vitro binding of porphyrins to hydroxyapatite
Conditions: 1 mM porphyrin, 10 mg hydroxyapatite, 30 min in the dark

SMILES | binding to hydroxyapatite
Cl.Cl.O=C(O)CCC1=C(CC(=O)O)c2cc3nc(cc4[nH]c(cc5[nH]c(cc1n2)c(CC(=O)O)c5CCC(=O)O)c(CC(=O)O)c4CCC(=O)O)C(CC(=O)O)=C3CCC(=O)O [Uro-I, uroporphyrin-I dihydrochloride] | bound to hydroxyapatite
CC1=C(CCC(=O)O)c2cc3nc(cc4[nH]c(cc5[nH]c(cc1n2)c(CCC(=O)O)c5C)c(CCC(=O)O)c4C)C(CCC(=O)O)=C3C [copro-I, coproporphyrin-I dihydrochloride] | not
